Hit rate of the full screen: of about 580,000 compounds, about 6,100 (1.1%) were called active. The inconclusive results got no clear call from the source; some entries with a clear call stand among them for comparison. Calls follow the shape of the dose curve; as a rule, active = well fitted inhibition curve with a large enough effect; inconclusive = small, poorly fitted or top-dose-only effect, or another doubt; inactive = no such curve, though single readings can be large or run the other way. Potencies beside an inconclusive call are fits to weak or partial responses and may not hold up.
What follows are molecules tested against Polyunsaturated fatty acid lipoxygenase ALOX12 (Homo sapiens) (UniProt P18054) (assay: Primary qHTS assay for inhibitors of human arachidonate 12S-lipoxygenase (ALOX12): Round 2). Details: purified 12hLO, xylenol orange hydroperoxide absorbance; activity change, negative = inhibition: at 108 µM (top of the series) unless noted.
Outline: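 Purified human 12hLO at 150 nM in 25 mM Hepes, 0.01% Triton X-100, pH 7.0, preincubated 15 min at room temperature with compound. Reaction started with 40 uM arachidonic acid, 30 min at room temperature. Hydroperoxide measured by Fe-xylenol orange, 573/405 nm absorbance ratio.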
% is scaled to controls: 0 for no effect and ±100 for the full control effect; potency is read from the fitted curve at half-maximal effect.

The chains behind the UniProt entries cited, without tags or fusion partners.
UniProt P18054, whole entry, looked up: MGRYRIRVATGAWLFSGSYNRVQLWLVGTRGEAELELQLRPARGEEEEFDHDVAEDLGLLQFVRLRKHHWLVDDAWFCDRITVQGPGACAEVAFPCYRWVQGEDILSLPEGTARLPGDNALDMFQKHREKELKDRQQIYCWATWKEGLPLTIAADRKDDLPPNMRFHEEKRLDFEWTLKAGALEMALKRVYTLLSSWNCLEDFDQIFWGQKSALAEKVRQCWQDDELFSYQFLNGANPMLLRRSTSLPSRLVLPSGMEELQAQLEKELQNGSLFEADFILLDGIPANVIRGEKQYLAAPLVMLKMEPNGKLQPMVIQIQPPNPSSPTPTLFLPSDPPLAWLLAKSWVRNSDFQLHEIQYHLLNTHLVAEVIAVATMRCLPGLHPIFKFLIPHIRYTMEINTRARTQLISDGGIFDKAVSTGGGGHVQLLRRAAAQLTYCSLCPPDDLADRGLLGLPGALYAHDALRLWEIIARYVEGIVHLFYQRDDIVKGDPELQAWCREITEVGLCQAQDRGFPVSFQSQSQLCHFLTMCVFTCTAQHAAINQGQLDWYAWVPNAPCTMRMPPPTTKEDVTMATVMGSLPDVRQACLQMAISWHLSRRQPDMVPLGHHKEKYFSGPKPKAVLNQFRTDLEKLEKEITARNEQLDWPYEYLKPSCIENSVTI

Question: How did the “activity change, negative = inhibition” value turn out when COc1cccc(CN2C(=O)OC3(CCN(Cc4ccccc4OC)CC3)C2(C)c2cccnc2)c1 (configuration not stated) was run?
Answer: inactive: 9.18%

Question: Which “activity change, negative = inhibition” value does the source give for C[C@]12C[C@H](O)[C@@H]3c4ccc(O)cc4CC[C@H]3[C@@H]1CCC2=O here?
Answer: inactive: -10.2%

Question: How did the activity change, negative = inhibition turn out when COc1cccc([S+](=O)([O-])N2CCC3(CC2)C(=NC2CCCCC2)NC(=O)N3c2cc(F)cc(F)c2)c1 was run?
Answer: inactive: 12.4% [at 6.33 µM]

Question: For CCCCC1CCC(C(=O)Nc2ccc(OC)c3ncccc23)CC1 (configuration not stated), which “activity change, negative = inhibition” value is on record?
Answer: inactive: 41.1%

Question: With O=C(Cc1cccc(C(F)(F)F)c1)NCc1ccc(Cl)cc1 as the molecule, how does the Potency read?
Answer: inconclusive: 44.7 µM [inhibitor, partial curve, poor fit]

Question: With Cc1nc(NC2CCCC2)sc1C(=O)Nc1ccccc1 as the molecule, how does the Potency read?
Answer: inconclusive: 2.24 µM [inhibitor, full curve]

Question: How did the Potency turn out when CCN(CC)C(=O)C1=C(C)N(Cc2ccc(C(C)(C)C)cc2)C(=O)C(CC(=O)NCc2cccs2)C1 (configuration not stated) was run?
Answer: inconclusive: 5.62 µM [inhibitor, full curve, poor fit]

Question: With Cc1ccc(CSc2oc(-c3ccco3)nc2S(=O)(=O)c2ccc(Cl)cc2)cc1 as the molecule, how does the Potency read?
Answer: inconclusive: 50.1 µM [inhibitor, partial curve, poor fit]

Question: For CN1CCCN(S(=O)(=O)c2ccccc2F)c2ccccc21, which Potency is on record?
Answer: inconclusive: 17.8 µM [inhibitor, full curve]

Question: With COc1ccc(OC)c(-c2cc(C(=O)Nc3c(C)nn(Cc4ccc(Cl)cc4)c3C)no2)c1 as the molecule, how does the Potency read?
Answer: inconclusive: 112 µM [inhibitor, single point]

Question: With O=C(Nc1nc(-c2ccc(Cl)s2)cs1)c1cccs1 as the molecule, how does the Potency read?
Answer: inconclusive: 22.4 µM [inhibitor, partial curve]

Question: CC(Sc1ncnc2sc(-c3ccccc3)cc12)C(=O)NCC1CCCO1 (configuration not stated) was tested. Which Potency did it give?
Answer: inconclusive: 39.8 µM [inhibitor, partial curve, poor fit]

Question: With Cc1cnc(CCNC(=O)Cc2ccccc2)n1CC1CC1 as the molecule, how does the Potency read?
Answer: inconclusive: 1 µM [inhibitor, full curve, poor fit]

Question: Which Potency does the source give for NC(=S)Nc1ccc2c(c1)OCO2 here?
Answer: inconclusive: 100 µM [inhibitor, single point]

Question: Which Potency does the source give for CCN(CC)S(=O)(=O)c1ccc(C(C)NC(=O)C2CCCN2C(=O)c2cccs2)cc1 (configuration not stated) here?
Answer: inconclusive: 63.1 µM [inhibitor, partial curve, poor fit]

Question: How did the “activity change, negative = inhibition” value turn out when C=CCN(Cc1nc(-c2ccccc2)no1)Cc1nccn1C was run?
Answer: inactive: 26.9%

Question: For CCn1cc(C(=O)O)c(=O)c2cc(F)c(N/N=C/c3ccccc3[N+](=O)[O-])cc21, which “activity change, negative = inhibition” value is on record?
Answer: inactive: -14%

Question: For Cc1ccc(CNC(=O)CSc2ccc(-c3sc(-c4ccccc4)nc3C)nn2)cc1, which Potency is on record?
Answer: inconclusive: 50.1 µM [inhibitor, partial curve, poor fit]

Question: With Cc1cccc(S(=O)(=O)N(C)C[C@@H]2OCc3cn(nn3)CCCC(=O)N([C@H](C)CO)C[C@H]2C)c1 as the molecule, how does the Potency read?
Answer: inconclusive: 112 µM [inhibitor, single point]

Question: With O=C(NCC1CC1)[C@H]1CN(Cc2ccccc2)C[C@H]1C(=O)O as the molecule, how does the Potency read?
Answer: inconclusive: 14.1 µM [inhibitor, partial curve]

Question: How did the Potency turn out when CC(=O)c1c(C)[nH]c(C(=O)C(C)OC(=O)c2ccc(F)cc2Cl)c1C (configuration not stated) was run?
Answer: inconclusive: 50.1 µM [inhibitor, partial curve, poor fit]

Question: Which Potency does the source give for O=C(O)c1ccc2c(c1)C(=O)N(c1ccc(Cl)cn1)C2=O here?
Answer: inconclusive: 44.7 µM [inhibitor, partial curve, poor fit]

Question: With COc1ccccc1CNC(=O)c1cc(-c2ccccc2)nn1CC1CC(c2cccnc2)=NO1 (configuration not stated) as the molecule, how does the Potency read?
Answer: inconclusive: 100 µM [inhibitor, single point]

Question: With Cc1ccccc1-n1sc2cc(F)ccc2c1=O as the molecule, how does the Potency read?
Answer: inconclusive: 0.355 µM [inhibitor, full curve, poor fit]

Question: COc1ccc(O[C@H]2COCCN(C(=O)COc3ccccc3)C2)cc1 was tested. Which “activity change, negative = inhibition” value did it give?
Answer: inactive: 46.9% [at 176 µM]

Question: CC(=O)CC1c2cc(F)ccc2C=C(c2ccsc2)N1c1ccc(C#CC2(O)CCCCC2)cc1 (configuration not stated) was tested. Which Potency did it give?
Answer: inconclusive: 44.7 µM [inhibitor, partial curve, poor fit]

Question: O=C1CC(c2ccco2)CC(O)=C1C=Nc1ccccc1-c1ccccc1 (configuration not stated) was tested. Which “activity change, negative = inhibition” value did it give?
Answer: inactive: -6.51%

Question: For COc1ccc2c(CCNC(=O)c3ccccc3OC)c[nH]c2c1, which Potency is on record?
Answer: inconclusive: 50.1 µM [inhibitor, single point]

Question: How did the “activity change, negative = inhibition” value turn out when COc1cccc2cc(S(=O)(=O)c3cccc(Cl)c3)c(=O)oc12 was run?
Answer: inactive: -23.2%

Question: With CC(C)(C)c1ccc(C(=O)N/N=C(/C=C/c2ccccc2)c2ccccc2)cc1 as the molecule, how does the “activity change, negative = inhibition” value read?
Answer: inactive: 34.1%

Question: How did the Potency turn out when Cc1c(C(=O)Nc2ccc(S(=O)(=O)Nc3ncccn3)cc2)oc2ccc(Cl)cc12 was run?
Answer: inconclusive: 100 µM [inhibitor, single point]

Question: How did the “activity change, negative = inhibition” value turn out when CCn1c2ccccc2c2cc(CNCC3CCNCC3)ccc21 was run?
Answer: inactive: -22.7%

Question: For COc1ccccc1-n1cnc2cc(NCc3ccccn3)ccc21, which “activity change, negative = inhibition” value is on record?
Answer: inactive: -21.1%

Question: Which Potency does the source give for O=C1NC2(CCCN(C(=O)c3ccccn3)C2)Oc2ccccc21 (configuration not stated) here?
Answer: inconclusive: 39.8 µM [inhibitor, single point]

Question: How did the Potency turn out when CC(=O)Nc1ccc(S(=O)(=O)Nc2nc3ccccc3nc2Nc2ccc(C(=O)O)c(O)c2)cc1 was run?
Answer: inconclusive: 39.8 µM [inhibitor, partial curve]

Question: Which “activity change, negative = inhibition” value does the source give for COc1cccc(CN(C)CC(=O)Nc2cc(C)nn2-c2ccccc2C)c1 here?
Answer: inactive: 17.5%

Question: How did the Potency turn out when O=C(OCc1cc(=O)oc2cc(O)ccc12)C1CCCC1 was run?
Answer: inconclusive: 56.2 µM [inhibitor, full curve, poor fit]

Question: How did the “activity change, negative = inhibition” value turn out when O=C(Nc1scc(-c2ccccc2)c1C(=O)O)c1ccc(F)cc1 was run?
Answer: inactive: 0.414%

Question: With C[C@@H]1CN([C@@H](C)CO)C(=O)c2ccccc2-c2ccccc2CO[C@@H]1CN(C)Cc1ccc(Cl)c(Cl)c1 as the molecule, how does the Potency read?
Answer: inconclusive: 126 µM [inhibitor, single point]

Question: For S=c1[nH]nc(COc2ccccc2)n1/N=C/c1ccco1, which Potency is on record?
Answer: inconclusive: 50.1 µM [inhibitor, partial curve, poor fit]

Question: With Cc1ccc(COC(=O)C(C)NC(=O)c2ccccc2)cc1 (configuration not stated) as the molecule, how does the Potency read?
Answer: inconclusive: 50.1 µM [inhibitor, partial curve, poor fit]

Question: Which Potency does the source give for CCC1(N2CCN(C(=O)NCc3cccc(F)c3)CC2)CCN(C(=O)C(C)C)C1 (configuration not stated) here?
Answer: inconclusive: 5.62 µM [inhibitor, partial curve]

— PubChem BioAssay AID1671190 (National Center for Advancing Translational Sciences (NCATS), 2021)
